Values joined by “and” are separate entries in the source; they are usually repeats but may differ in a detail not shown here. Equal values may be shown once. Hit rate of the full screen: of about 340,000 compounds, about 4,500 (1.3%) were called active. Inconclusive means that the source gave no clear call. Such entries were picked first, then a sample of the others. Calls come from the whole dose curve; as a rule, active = well fitted inhibition curve with a large enough effect; inconclusive = small, poorly fitted or top-dose-only effect, or another doubt; inactive = no such curve, though single readings can be large or run the other way. Potencies of inconclusive entries are doubtful fits and often do not repeat.
target: DNA polymerase beta (Homo sapiens) (UniProt P06746); assay: qHTS Assay for Inhibitors of DNA Polymerase Beta; conditions: Pol beta primer extension/strand displacement, fluorescence kinetic; activity change, negative = inhibition: at 114 µM (top of the series)
Outline: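 Homogeneous kinetic assay of primer extension and strand displacement by 10 nM Pol beta, preincubated 15 min at room temperature with compound before 50 nM substrate (final) was added. Read at 0 and 10 min; four-parameter Hill fit.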
% is set by controls: 0 for no effect and ±100 for the full control effect; potency is the fitted concentration of half-maximal effect.

| Compound | activity change, negative = inhibition | Potency |
| --- | --- | --- |
| CCOCCCNCc1cc(Cl)cc(Cl)c1OCC | inactive: 49.8% | – |
| COc1cccc(NC(=O)CCc2nnc3ccc(NCc4ccco4)nn23)c1 | inconclusive: -66.3% [inhibitor] | – |
| Cc1nnc2c(Nc3cccc(O)c3)nc3ccccc3n12 | – | inconclusive: 89.1 µM [inhibitor, single point] |
| COc1cc(/C=C(/C(=O)O)c2ccc(-c3ccccc3)cc2)cc(OC)c1OC | – | active: 50.1 µM |
| O=C(Oc1cccc(NC(=O)c2ccco2)c1)c1cccc(S(=O)(=O)N2CCCC2)c1 | – | inconclusive: 79.4 µM [inhibitor, single point] |
| COc1ccc(Cl)cc1NC(=O)CCC(=O)N1CCOc2ccccc21 | – | inconclusive: 89.1 µM [inhibitor, single point] |
| C=CCn1c(-c2sc(-c3ccccc3)nc2C)n[nH]c1=S | – | inconclusive: 0.447 µM [inhibitor, full curve, poor fit] |
| CC(=O)Nc1ccc(C)cc1-c1nc2ccccc2n(CC(=O)Nc2cc(Cl)ccc2C)c1=O | – | inconclusive: 89.1 µM [inhibitor, single point] |
| COc1ccc(S(=O)(=O)N2CCCN(Cc3cccc(F)c3)CC2)cc1 | inactive: 32.5% | – |
| O=[N+]([O-])c1ccc(NCCCN2CCOCC2)c([N+](=O)[O-])c1 | – | inconclusive: 89.1 µM [inhibitor, single point] |
| CSC1=NSC2=NC(=O)/C(=C\c3ccc(OC(=O)c4ccco4)cc3)C(=N)N12 | inactive: -28.8% | – |
| CCOC(=O)Cc1ccc(NC(=O)NCc2cccn2Cc2ccccc2)cc1 | inactive: 7.81% | – |
| COc1ccc(NC(=O)COc2ccc(/C=C/c3cccc[n+]3C)cc2OC)cc1 | – | active: 11.2 µM |
| Cc1ccc(NC(=O)CSc2nc(-c3cccs3)nc3cc(=O)[nH]n23)cc1 | – | active: 31.6 µM |
| O=C(N/N=C\C=C\c1ccc([N+](=O)[O-])o1)c1cccs1 | – | active: 31.6 µM |
| O=C(CSc1nc2ncccc2[nH]1)NCc1ccco1 | – | inconclusive: 0.398 µM [inhibitor, partial curve] |
| CCC(=O)/C=C1/Sc2ccc(OC)cc2N1CC | inactive: -10.8% | – |
| CN(CC(=O)O)S(=O)(=O)c1cccs1 | inactive: 17.2% | – |
| O=C(CNc1cccc(S(=O)(=O)N2CCOCC2)c1)Nc1ccccc1F | inactive: 31% | – |
| CC(NC(=O)C1CCN(S(=O)(=O)c2cccc3nonc23)CC1)c1ccccc1 (centres undefined) | – | inconclusive: 100 µM [inhibitor, single point] |
| CCCNC(=O)N1[C@H](c2ccc(C)s2)[C@@H](C)C(=O)[C@@H](C)[C@@H]1c1ccc(C)s1 | inactive: -1.34% | – |
| Cc1ccc(Cl)cc1N1CCN(C(=O)c2cc(S(=O)(=O)N3CCCC3)cn2C)CC1 | – | inconclusive: 39.8 µM [inhibitor, partial curve] |
| Cc1cc(N2CCN(c3ccccc3)CC2)nc(NCc2ccccc2)n1 | – | inconclusive: 28.2 µM [inhibitor, partial curve, poor fit] |

| Compound | activity change, negative = inhibition | Potency |
| --- | --- | --- |
| CC(C)NC(=O)c1ccccc1NS(=O)(=O)c1ccc(Br)s1 | – | inconclusive: 35.5 µM [inhibitor, single point] |
| Cn1ncc(Br)c1C(=O)NC12CC3CC(CC(C3)C1)C2 | – | inconclusive: 100 µM [inhibitor, single point] |
| COc1ccc(Cc2nc3ccccc3[nH]2)cc1OC | – | inconclusive: 89.1 µM [inhibitor, single point] |
| N#Cc1ccccc1Cn1c(=O)n(-c2ccc(CC(=O)NCc3ccco3)cc2)c(=O)c2sccc21 | – | inconclusive: 31.6 µM [inhibitor, single point] |
| O=C(CSc1nc2ccc(S(=O)(=O)N3CCOCC3)cc2[nH]1)N1CCOCC1 | inactive: 3.89% | – |
| CCn1ccnc1CN(C)Cc1nc(CCC(C)C)no1 | inactive: -1.45% | – |
| COc1ccc(Cn2nnc(C(=O)Nc3cc(OC)ccc3OC)c2N)cc1 | – | inconclusive: 17.8 µM [inhibitor, single point] |
| COc1ccc(OC)c(CCNC(=O)c2c(C)nn(-c3ccc(F)cc3)c2-n2cccc2)c1 | inactive: 0.698% | – |
| CC(C)Cc1oc(C(=O)O)cc1CN1CCOCC1 | – | active: 89.1 µM |
| O=C(COC(=O)c1ccc(Cl)nc1)NCc1ccc2c(c1)OCO2 | – | inconclusive: 39.8 µM [inhibitor, single point] |
| Cc1nnc(SCC2=C(C(=O)O)N3C(=O)C(NC(=O)Cn4nc(C(F)F)cc4C)C3SC2)s1 (centres undefined) | – | inconclusive: 22.4 µM [inhibitor, full curve] |
| COc1ccc(OC)c(NC(=O)CN(C)S(=O)(=O)c2ccc3[nH]c4c(c3c2)CCCC4)c1 | – | inconclusive: 89.1 µM [inhibitor, single point] |
| CCC1=C(c2ccc(C)cc2)S(=O)(=O)N=C1N1CCC(C(=O)Nc2ccccc2F)CC1 | inactive: 16.7% | – |
| Cc1ccc(Cn2c(C(=O)NCc3ccccc3Cl)cc3sccc32)cc1 | inactive: 2.61% | – |
| CSc1nc2c(cc1C#N)C(=O)CC(C)(C)C2 | – | inconclusive: 3.55 µM [inhibitor, single point] |
| O=C(CSc1nc2sc3c(c2c(=O)n1-c1ccccc1)CCCC3)N/N=C/c1ccccc1C(=O)O | inconclusive: -94.7% [inhibitor] | – |
| COc1ccc(-n2ncc3c(N4CCC(C(N)=O)CC4)ncnc32)cc1 | – | inconclusive: 35.5 µM [inhibitor, full curve, poor fit] |
| COc1cc(NC(=O)CCn2c(=O)[nH]c3ccsc3c2=O)cc(OC)c1 | – | inconclusive: 50.1 µM [inhibitor, partial curve] |
| CS(=O)(=O)N1N=C(c2ccco2)CC1c1ccco1 (centres undefined) | – | inconclusive: 31.6 µM [inhibitor, partial curve, poor fit] |
| O=CN/C=C/c1cc(O)ccc1O | – | inconclusive: 56.2 µM [inhibitor, partial curve, poor fit] |
| O=C(OCc1cc(=O)n2nc(-c3cccs3)sc2n1)c1ccc(Cl)cc1 | – | active: 31.6 µM |
| CSC1=N/C(=C\c2ccccc2F)C(=O)S1 | inactive: -0.568% | – |
| CCOc1cc(C(=O)Nc2cc3c(cc2N2CCOCC2)n(C)c(=O)n3C)cc(OCC)c1OCC | – | inconclusive: 44.7 µM [inhibitor, partial curve] |

| Compound | activity change, negative = inhibition | Potency |
| --- | --- | --- |
| CCCCN(C)CCNC(=O)CCn1nc(-c2ccc(Cl)cc2)ccc1=O | – | inconclusive: 22.4 µM [inhibitor, partial curve] |
| CCC(=O)N1CCc2cc(S(=O)(=O)CCC(=O)O)ccc21 | – | inconclusive: 3.55 µM [inhibitor, full curve, poor fit] |
| CCOC(=O)c1c(C)[nH]c(C)c1C(=O)COC(=O)c1cc2ccccc2cc1OC | – | inconclusive: 3.98 µM [inhibitor, full curve, poor fit] |
| COc1ccc(CCNc2nc(N3CCCCC3)nc(N3CCCCC3)n2)cc1OC | – | inconclusive: 1.41 µM [inhibitor, full curve] |
| COc1cc(NC(=O)c2cccc3c2C(=O)N(C2CCCCC2)C3)cc(OC)c1OC | – | inconclusive: 15.8 µM [inhibitor, full curve] and inconclusive: 35.5 µM [inhibitor, full curve] |
| CN(Cc1ccco1)C(=O)CCc1nc2sc3c(c2c(=O)[nH]1)CCCC3 | inactive: 7.73% | – |
| Cc1ccccc1CNC(=O)CCCn1c(=O)c2cccn2c2cccnc21 | – | inconclusive: 3.16 µM [inhibitor, full curve, poor fit] |
| COCCNC(=O)CCc1nc(-c2ccccc2)no1 | inactive: -11.4% | – |
| CCOC(=O)N1CCN(C(=O)c2c[nH]c3ccc(S(=O)(=O)N(C)c4ccc(F)cc4)cc3c2=O)CC1 | inactive: 2.01% | – |
| COc1ccc(OC)c(CNC(=O)C(C)n2c(C)c3cnn(-c4ccccc4)c(=O)c3c2C)c1 (centres undefined) | inactive: -8.18% | – |
| COc1ccc(Br)cc1CNC(=O)C1CCN(c2nnc(N3CCCC3=O)s2)CC1 | – | inconclusive: 12.6 µM [inhibitor, partial curve, poor fit] |
| Cc1ccc(NC(=O)c2ccoc2C)cc1C | – | inconclusive: 35.5 µM [inhibitor, partial curve] |
| CCc1ccc(C(=O)c2cn(CC(=O)Nc3ccc4c(c3)OCO4)c3ccc(OC)cc3c2=O)cc1 | – | active: 10 µM |
| O=C(Cn1cnc2c(nnn2-c2ccccc2)c1=O)N1CCOCC1 | – | inconclusive: 89.1 µM [inhibitor, single point] |
| CN(C)/C=C1\C=C(c2ccccc2)OC1=O | – | inconclusive: 25.1 µM [inhibitor, full curve, poor fit] |
| CCOc1cc(/C=N/Nc2nc3ccccc3[nH]2)cc(Br)c1OCC(=O)N(C)C | – | inconclusive: 3.16 µM [inhibitor, partial curve, poor fit] |
| COc1cccc(NC(=O)c2cc(-c3ccc(C)o3)nc3ccccc23)c1 | – | inconclusive: 79.4 µM [inhibitor, single point] |
| CN(C)c1ccc(N=Nc2ccc(S(=O)(=O)O)cc2)c2ccccc12 | – | inconclusive: 100 µM [inhibitor, single point] |
| CCOc1ccc(C(=O)Nc2cccc3ncccc23)cc1Cl | – | inconclusive: 89.1 µM [inhibitor, single point] |
| CN1CCN(C(=O)c2c(O)c3cccc4c3n(c2=O)CC4)CC1 | – | inconclusive: 4.47 µM [inhibitor, full curve, poor fit] |
| COCCSc1ccccc1C(=O)Nc1ccncc1 | – | inconclusive: 89.1 µM [inhibitor, single point] |

Four entries from above, with each value named:
COc1cc(NC(=O)c2cccc3c2C(=O)N(C2CCCCC2)C3)cc(OC)c1OC
  Potency: inconclusive: 15.8 µM [inhibitor, full curve] and inconclusive: 35.5 µM [inhibitor, full curve]
CN(Cc1ccco1)C(=O)CCc1nc2sc3c(c2c(=O)[nH]1)CCCC3
  activity change, negative = inhibition: inactive: 7.73%
Cc1ccccc1CNC(=O)CCCn1c(=O)c2cccn2c2cccnc21
  Potency: inconclusive: 3.16 µM [inhibitor, full curve, poor fit]
COCCNC(=O)CCc1nc(-c2ccccc2)no1
  activity change, negative = inhibition: inactive: -11.4%

Source: PubChem BioAssay AID485314 (National Center for Advancing Translational Sciences (NCATS), 2010)
